Reference: patent US20230049231A1 (priority 2019, published 2023)

The chains behind the UniProt entries cited, without tags or fusion partners.
UniProt Q12809, whole entry: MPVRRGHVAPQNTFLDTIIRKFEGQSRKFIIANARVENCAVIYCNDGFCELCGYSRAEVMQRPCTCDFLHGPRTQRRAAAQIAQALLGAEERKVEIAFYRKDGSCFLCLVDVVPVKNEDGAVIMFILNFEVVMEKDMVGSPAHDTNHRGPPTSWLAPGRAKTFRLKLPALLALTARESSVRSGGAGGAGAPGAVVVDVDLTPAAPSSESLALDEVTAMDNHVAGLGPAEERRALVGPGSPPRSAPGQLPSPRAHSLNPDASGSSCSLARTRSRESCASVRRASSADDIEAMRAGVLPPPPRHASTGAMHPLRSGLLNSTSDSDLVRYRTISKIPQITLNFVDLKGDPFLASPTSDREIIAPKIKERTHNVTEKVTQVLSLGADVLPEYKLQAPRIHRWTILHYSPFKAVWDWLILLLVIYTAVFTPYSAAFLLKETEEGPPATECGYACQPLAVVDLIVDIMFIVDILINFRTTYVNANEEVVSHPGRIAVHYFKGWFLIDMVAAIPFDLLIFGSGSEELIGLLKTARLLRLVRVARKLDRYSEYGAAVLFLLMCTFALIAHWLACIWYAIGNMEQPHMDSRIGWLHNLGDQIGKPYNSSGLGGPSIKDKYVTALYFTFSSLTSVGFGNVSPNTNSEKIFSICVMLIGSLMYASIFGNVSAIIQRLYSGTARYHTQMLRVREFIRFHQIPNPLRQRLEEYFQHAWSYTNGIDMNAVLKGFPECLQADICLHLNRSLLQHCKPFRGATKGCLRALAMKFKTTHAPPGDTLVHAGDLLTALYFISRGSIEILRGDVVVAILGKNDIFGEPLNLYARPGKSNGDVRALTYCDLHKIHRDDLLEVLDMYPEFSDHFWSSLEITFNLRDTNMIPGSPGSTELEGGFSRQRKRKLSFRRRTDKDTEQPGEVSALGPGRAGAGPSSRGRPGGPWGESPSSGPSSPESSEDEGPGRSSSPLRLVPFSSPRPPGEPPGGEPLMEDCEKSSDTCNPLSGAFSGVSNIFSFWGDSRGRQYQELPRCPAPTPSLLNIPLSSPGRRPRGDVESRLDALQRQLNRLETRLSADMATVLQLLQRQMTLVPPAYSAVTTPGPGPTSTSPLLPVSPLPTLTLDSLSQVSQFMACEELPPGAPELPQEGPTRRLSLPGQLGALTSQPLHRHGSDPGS
UniProt P22001, whole entry: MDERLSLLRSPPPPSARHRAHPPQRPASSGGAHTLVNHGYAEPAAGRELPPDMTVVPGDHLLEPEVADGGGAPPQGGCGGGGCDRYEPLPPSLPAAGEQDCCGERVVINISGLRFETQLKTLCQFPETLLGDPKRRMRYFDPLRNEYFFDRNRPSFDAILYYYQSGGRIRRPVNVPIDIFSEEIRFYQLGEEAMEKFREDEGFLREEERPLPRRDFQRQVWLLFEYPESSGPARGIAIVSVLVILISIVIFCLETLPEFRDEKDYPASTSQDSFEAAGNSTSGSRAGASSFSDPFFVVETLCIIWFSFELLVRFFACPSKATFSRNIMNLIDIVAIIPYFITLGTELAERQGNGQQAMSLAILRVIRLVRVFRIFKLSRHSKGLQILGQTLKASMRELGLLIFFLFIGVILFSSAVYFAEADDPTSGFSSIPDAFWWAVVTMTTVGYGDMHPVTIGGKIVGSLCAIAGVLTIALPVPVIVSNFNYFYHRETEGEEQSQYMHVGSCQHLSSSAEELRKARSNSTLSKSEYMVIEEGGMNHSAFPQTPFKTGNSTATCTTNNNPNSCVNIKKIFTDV

Key:
hERG channel = hERG channel (Homo sapiens, UniProt Q12809); assay: hERG electrophysiology, automated whole-cell patch clamp (Patchliner); conditions: read-out: hERG IC50; CHO-K1 cells stably expressing hERG; +20 mV 300 ms, -50 mV 300 ms tail current, 0.3 Hz
Experimental: This assay is used to evaluate the disclosed compounds' inhibition activities against the hERG channel.
CHO-K1 cells stably expressing hERG were grown in Ham's F-12 Medium with glutamine containing 10% heat-inactivated FBS, 1% penicillin/streptomycin, hygromycin (100 μg/ml) and G418 (100 μg/ml). Cells were grown in culture flasks at 37° C. in a 5% CO2-humidified incubator.
(§1) The cells were bathed in an extracellular solution containing 140 mM NaCl, 4 mM KCl, 2 mM CaCl2), 1 mM MgCl2, 5 mM glucose, and 10 mM HEPES; pH adjusted to 7.4 with NaOH; 295-305 mOsm. The internal solution contained 50 mM KCl, 10 mM NaCl, 60 mM KF, 20 mM EGTA, and 10 mM HEPES; pH adjusted to 7.2 with KOH; 285 mOsm. All compounds were dissolved in DMSO at 30 mM. Compound stock solutions were freshly diluted with external solution to concentrations of 30 nM, 100 nM, 300 nM, 1 μM, 3 μM, 10 μM, 30 μM and 100 μM. The highest content of DMSO (0.3%) was present in 100 μM.
The voltage protocol (see Table 3) was designed to simulate voltage changes during a cardiac action potential with a 300 ms depolarization to +20 mV (analogous to the plateau phase of the cardiac action potential), a repolarization for 300 ms to −50 mV (inducing a tail current) and a final step to the holding potential of −80 mV. The pulse frequency was 0.3 Hz. […]

Kv1.3 potassium channel = Kv1.3 potassium channel (Homo sapiens, UniProt P22001); assay: Kv1.3 potassium channel blocker activity, automated whole-cell patch clamp (Patchliner); conditions: read-out: Kv1.3 IC50; CHO-K1 cells stably expressing Kv1.3; 100 ms pulses from -90 mV to +40 mV, 0.1 Hz
Experimental: This assay is used to evaluate the disclosed compounds' activities as Kv1.3 potassium channel blockers.
CHO-K1 cells stably expressing Kv1.3 were grown in DMEM containing 10% heat-inactivated FBS, 1 mM sodium pyruvate, 2 mM L-glutamine and G418 (500 μg/ml). Cells were grown in culture flasks at 37° C. in a 5% CO2-humidified incubator.
as §1
The currents were evoked by applying 100 ms depolarizing pulses from −90 mV (holding potential) to +40 mV were applied with 0.1 Hz frequency. Control (compound-free) and compound pulse trains for each compound concentration applied contained 20 pulses.
10-second breaks were used between pulse trains (see Table 2 below).
Whole-cell current recordings and compound application were enabled by means of an automated patch clamp platform Patchliner (Nanion Technologies GmbH). […]

O=C([C@H]1CCCO1)N1CC(=O)N2C[C@@H](c3c(O)ccc(Cl)c3Cl)C[C@H]2C1
pIC50 (hERG channel): > 4.52
pIC50 (Kv1.3 potassium channel): > 6.00

pIC50: −log10 of the molar value. The match of structure and compound is tentative.
